No constants are given. Whether binding was seen depends on the method and setting. Binding seen in cells or lysates may run through a third protein. A yes stands for co-enrichment or nearness to the bait. Other partners may have been found. No binding means not detected with the bait.
B1: Nup98 (endogenous) (protein, UniProt Q9VCH5 1-1028)
chain: MFGGAKPSFGATPAATSFGGFSGTTTTTPFGQSAFGKPAAPAFGNTSTFAAQPAQQSLFGAAATPAQPAGGLFGANTSTGFGSTATAQPTAFGAFSQPQQTSNIFGSTQTAASTSLFGQSTLPAFGAAKPTMTAFGQTAAAQPTGSLFGQPAAATSTTGFGGFGTSAPTTTNVFGSGTASAFAQPQATAVGASGVNTGTAVAKYQPTIGTDTLMKSGQANSVNTKQHCITAMKEFEGKSLEELRLEDYMCGRKGPQAGNAPGAFGFGAQVTQPAQPASGGLFGSTAQPSTGLFGQTVTENKSMFGTTAFGQQPATNNAFGAATQQNNFLQKPFGATTTTPFAAPAADASNPFGAKPAFGQGGSLFGQAPATSAAPAFGQTNTGFGGFGTTAGATQQSTLFGATPAADPNKSAFGLGTAASAATTGFGFGAPATSTAGGGLFGNKPATSFAAPTFGATSTASTPFSNFGLNTSTAATGGGLFNSGLNKPATSGFGGFGATSAAPLNFNAGNTGGSLFGNTAKPGGGLFGGGTTTLGGTGAAPTGGLFGGGTTSFGGVGGSLGGGGFGMGTNNSLTGGIMGAQPTLGIMTPSHQPIHQQILARVTSPYGDSPIFKDLKLSSEADATRATNPAAQQAVLDLTSNQYKISTSNNPAPMKVKALGSTLNRKSLFDGLEEFDASVEGFNLKPSAKRLVIKPKVKSVEGGNPSSSIGSAPNTPQSRPKGATPNKERESFSGAIPSEPLPPAGNSPGATNGRESQDNGRRESWLHPNNLEKVRQHNIQTGMDQGSPHNSTLNELVPRKPLDTYRPSSTVRLSVSTIPENPFEDQSSTIARRETFTSQQANESVLSNRSNEAEDSAANQSRLAIEAAAAEAADDESHPTGIVLRRVGYYTIPSLDDLRSYLAEDGSCVVPNFTVGREGYGNVFFGKEMDVAGLNLDEIVHFRNKEIIIYPDDENKPPIGQGLNRDAQVTLDQVWPLDKTKHEAIKDPQRLLEMDWEGKLRRVCDKNDTRFIEYRPETGSWVFRVKHF
B2: Trithorax-like protein (Trl)/GAF (protein, UniProt Q08605 1-582)
chain: MSLPMNSLYSLTWGDYGTSLVSAIQLLRCHGDLVDCTLAAGGRSFPAHKIVLCAASPFLLDLLKNTPCKHPVVMLAGVNANDLEALLEFVYRGEVSVDHAQLPSLLQAAQCLNIQGLAPQTVTKDDYTTHSIQLQHMIPQHHDQDQLIATIATAPQQTVHAQVVEDIHHQGQILQATTQTNAAGQQQTIVTTDAAKHDQAVIQAFLPARKRKPRVKKMSPTAPKISKVEGMDTIMGTPTSSHGSGSVQQVLGENGAEGQLLSSTPIIKSEGQKVETIVTMDPNNMIPVTSANAATGEITPAQGATGSSGGNTSGVLSTPKAKRAKHPPGTEKPRSRSQSEQPATCPICYAVIRQSRNLRRHLELRHFAKPGVKKEKKTTSGKKSSSGSSGSGSGALSSSGSVPQVQTVQSLHTLQGVQVKKDPDAQQQQQQQQQQQQQQQQQAMTVSGATGGQVQQQVQQVQQQVQQQQQQQQQQQQQLQHHQIIDSSGNITTATTSAQAAAAAQQQAAGQQQQLVAQSDGSESGAPLSIAQVQTLQGHQIIGNLNQVNITDFQQQQPQQQQQQQQQQQQQQQQQQQTQQTL
B3: Suppressor of Hairy Wing (protein, UniProt P08970 1-941)
chain: MSASKEGKEKKGKLLGVENISPPKDKRPATRMKLLNDVGAGEDSEASTTTTTSRTPSNKQEKRGSVAGSRIKILNEEILGTPKTEKRGATKSTAPAASTVKILNEKKTPSATVTAVETTKIKTSPSKRKKMEHYVLQAVKSENTKADTTVTVVTEEDDTIDFILADDEEVVPGRIENNNGQEIVVTEDDEDLGEDGDEDGEDSSGKGNSSQTKIKEIVEHVCGKCYKTFRRVQSLKKHLEFCRYDSGYHLRKADMLKNLEKIEKDAVVMEKKDICFCCSESYDTFHLGHINCPDCPKSFKTQTSYERHIFITHSEFSDFPCSICNANLRSEALLALHEEQHKSRGKPYACKICGKDFTRSYHLKRHQKYSSCSSNETDTMSCKVCDRVFYRLDNLRSHLKQHLGTQVVKKPEYMCHTCKNCFYSLSTLNIHIRTHTGEKPFDCDLCDKKFSALVALKKHRRYHTGEKPYSCTVCNQAFAVKEVLNRHMKRHTGERPHKCDECGKSFIQATQLRTHSKTHIRPFPCEQCDEKFKTEKQLERHVKTHSRTKRPVFSCAECKRNFRTPALLKEHMDEGKHSPKQQRSSMRSAVKIMERTDCAICDKNFDSSDTLRRHIRTVHECDPDDIFGVEPHPSKRAKKDIESEEVVPVALNTSAGSLISSQTDGNGVVVREFLVDEGDGAAQTITLENETYTILPLDGAIEGEQLTDEAGVKPEAKKEEAQVSPVVKKEQRKSLAASLAAAIADNLEESCSEDDFSGEILTEEDIKLKENVGKLIDMLVDPPILKKYGWPNAPEETVLCKVIENCGHDLTKGGENYAELDYGSRMREYCKLLFTVVIHNDSIKSLLNNFPIDDVIEYVLGDEDQDEGGLDKDNESHSGDEEAVSVTGETKTNEIREKPEKKEVSAKSEKKEIVGKAVDKDNSEEVVRENKKKPVGEQEKA
B4: CTCF (protein, UniProt Q9VS55 1-818)
chain: MPRRTKKDEDPEDLQTFLNNFHKEIEGNSDEKVVNTILEAISAEAIDLDENGAEAGGSKPMEEAEADLDHAEEAEEEEEDDEDKYFIDDEGNCYIKTTPKKQKELQKKLKQAAAKPGKATRSVVSTATNKSINLRPAKSTPKATTSKPPPEPKAISVRPARAAAAKAKQSAMPPPPALVVKVPAPRGRPRKNPVIPKPEPMDLERELEELVDEPDISSMVTELSDYTVDEAAVEAATATLTPNEAEVYEFEDNATTEDENADKKDVDFVLSNKEVKLKTASSTSQNSNASGHKYSCPHCPYTASKKFLITRHSRSHDVEPSFKCSICERSFRSNVGLQNHINTHMGNKPHKCKLCESAFTTSGELVRHTRYKHTKEKPHKCTECTYASVELTKLRRHMTCHTGERPYQCPHCTYASQDMFKLKRHMVIHTGEKKYQCDICKSRFTQSNSLKAHKLIHSVVDKPVFQCNYCPTTCGRKADLRVHIKHMHTSDVPMTCRRCGQQLPDRYQYKLHVKSHEGEKCYSCKLCSYASVTQRHLASHMLIHLDEKPFHCDQCPQAFRQRQLLRRHMNLVHNEEYQPPEPREKLHKCPSCPREFTHKGNLMRHMETHDDSANAREKRRRLKLGRNVRLQKDGTVITLIKDQYVDMDRDQEENEEDDNPESYDLAEIEPENSEAEDADDDVETIVSDPIRQRIKPAPIIINKQARLAASEKQPMIINQRLRSQRGTKTFHIKEEPDNSDFTVEWQGDDGEVMVVELVNGDEEVLVKHEPSANSKISAKNCFGFEDDDDYEEYGDGENEVDGASQEFLQLMDMIEQDS

By UniProt entry, the sequences of proteins in these tests, tags left out. Where a name states a change or a piece, a line headed by the entry shows the natural chain unless it says otherwise.
UniProt Q9VVR1: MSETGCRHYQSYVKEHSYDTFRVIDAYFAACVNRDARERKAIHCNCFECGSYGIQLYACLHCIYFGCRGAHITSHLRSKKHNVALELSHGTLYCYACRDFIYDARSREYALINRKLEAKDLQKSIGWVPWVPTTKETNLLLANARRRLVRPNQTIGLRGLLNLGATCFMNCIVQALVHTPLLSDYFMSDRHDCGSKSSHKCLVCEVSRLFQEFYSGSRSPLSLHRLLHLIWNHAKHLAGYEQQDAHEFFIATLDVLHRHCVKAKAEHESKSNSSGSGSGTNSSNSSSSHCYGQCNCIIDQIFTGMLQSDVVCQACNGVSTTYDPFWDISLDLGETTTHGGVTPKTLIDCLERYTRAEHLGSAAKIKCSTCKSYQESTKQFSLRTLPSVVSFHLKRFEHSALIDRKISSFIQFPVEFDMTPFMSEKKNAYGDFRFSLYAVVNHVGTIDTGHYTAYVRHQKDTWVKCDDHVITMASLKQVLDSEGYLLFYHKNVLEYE

Molecular target: Non-stop-2xFLAG-2xHA (D. melanogaster) (UniProt Q9VVR1)
Experiment: affinity purification with mass spectrometry; Non-stop-2xFLAG-2xHA from stably transfected S2 cells, sequential capture by FLAG then HA, complexes resolved by gel filtration, three fractions of each peak of deubiquitinase activity combined and analysed by MudPIT (Group 1 about 1.8 MDa, Group 2 about 670 kDa, third peak about 75 kDa)

Binder	binding
B1	binds
B2	no binding
B3	no binding
B4	no binding

— publication PMC7936876
